PubChem BioAssay AID1224830 – NIAID | 2016
Screen: 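Genes whose knock-down alters the TNF-alpha reporter response to LPS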 (primary screen). Cell system: human THP-1 monocytic leukaemia cells, TNF dual-luciferase reporter clone, PMA-differentiated to macrophage-like cells. Reagents: siRNA pool against human genes, 50 nM. Time to read-out: LPS for 4 h, given about 3 days after siRNA transfection. Challenge: bacterial LPS (TLR4 ligand), 10 ng/ml. Measured: 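TNF firefly reporter luminescence divided by renilla, normalised to the plate median, then turned into a robust z-score for each replicate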. Reading the numbers: TNF reporter robust z-score: higher = stronger TNF reporter response to LPS. Rule for the call: 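a well is active when its z-score exceeds 2.8 or falls below -1.5; control wells carry no call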.
This is a random part of about 18,000 deposited reagents. Over the whole deposit, about 2,900 (16%) are marked active. 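Calls are made per well; low scores hint the gene aids the LPS response, high scores that it dampens it.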 Unmarked entries are inactive. Repeated entries: four replicate wells of each siRNA pool.

After knock-down of ARHGEF5 the results were TNF reporter robust z-score 0.12.
After knock-down of ARHGEF5, the record shows TNF reporter robust z-score 1.41.
With knock-down of ARHGEF5 the results were TNF reporter robust z-score 0.87.
For ARHGEF5, the entry reads TNF reporter robust z-score 1.25.
Depletion of TRAK2 resulted in: TNF reporter robust z-score 0.44.
TRAK2 gave TNF reporter robust z-score 0.73.
TRAK2 showed TNF reporter robust z-score -1.68 (active).
TRAK2 showed TNF reporter robust z-score 0.69.
Silencing of TSC22D3 came out at: TNF reporter robust z-score -0.27.
Against TSC22D3, the values are TNF reporter robust z-score -0.9.
After knock-down of TSC22D3, the screen gave TNF reporter robust z-score -0.31.
Depletion of TSC22D3 gave: TNF reporter robust z-score -0.51.
Knock-down of SLC34A3 resulted in: TNF reporter robust z-score -1.13.
Depletion of SLC34A3 gave: TNF reporter robust z-score 0.8.
SLC34A3 showed TNF reporter robust z-score -0.82.
Against SLC34A3, the entry reads TNF reporter robust z-score 0.63.

An excerpt from the list above:
TSC22D3 → TNF reporter robust z-score: -0.27
TSC22D3 → TNF reporter robust z-score: -0.9
TSC22D3 → TNF reporter robust z-score: -0.31

More reagents follow.
ARFGEF2 scored TNF reporter robust z-score 0.45.
ARFGEF2 gave TNF reporter robust z-score 1.52.
Against ARFGEF2 the deposit lists TNF reporter robust z-score -1.2.
With knock-down of ARFGEF2, the record shows TNF reporter robust z-score -0.98.
Against RAD23B the deposit lists TNF reporter robust z-score -0.76.
Against RAD23B, the values are TNF reporter robust z-score -0.75.
Against RAD23B the deposit lists TNF reporter robust z-score -0.84.
After knock-down of RAD23B, the screen gave TNF reporter robust z-score -1.68 (active).
CANX showed TNF reporter robust z-score -0.96.
With knock-down of CANX, the screen gave TNF reporter robust z-score -0.59.
Against CANX, the values are TNF reporter robust z-score -0.66.
For CANX, the values are TNF reporter robust z-score -0.48.
For NR2F2 the deposit lists TNF reporter robust z-score 12.1 (active).
For NR2F2, the entry reads TNF reporter robust z-score 0.97.
After knock-down of NR2F2, the record shows TNF reporter robust z-score -0.52.
For NR2F2 the deposit lists TNF reporter robust z-score 0.68.
Depletion of GABRA3 came out at: TNF reporter robust z-score 0.58.
For GABRA3, the entry reads TNF reporter robust z-score 1.05.
Knock-down of GABRA3 resulted in: TNF reporter robust z-score -1.13.
GABRA3 gave TNF reporter robust z-score 0.03.
Depletion of ZNF185 resulted in: TNF reporter robust z-score 1.55.
Knock-down of ZNF185 came out at: TNF reporter robust z-score 0.44.
ZNF185 scored TNF reporter robust z-score -0.18.
After knock-down of ZNF185 the results were TNF reporter robust z-score -1.19.
Knock-down of SERHL2 resulted in: TNF reporter robust z-score -0.02.
With knock-down of SERHL2 the results were TNF reporter robust z-score 0.11.
Depletion of SERHL2 gave: TNF reporter robust z-score -0.32.
Against SERHL2, the entry reads TNF reporter robust z-score 0.01.
Silencing of FEZF2 gave: TNF reporter robust z-score -0.64.
After knock-down of FEZF2, the record shows TNF reporter robust z-score 0.23.
FEZF2 showed TNF reporter robust z-score -0.36.
Against FEZF2, the entry reads TNF reporter robust z-score 0.07.
